Measurements as given in PubChem BioAssay AID1487 (National Center for Advancing Translational Sciences (NCATS), 2009).
Screen size: about 200,000 compounds; about 25 (0.01%) were called active. The inconclusive results got no clear call from the source; some entries with a clear call stand among them for comparison. The call rests on the fitted dose curve; in most records, active means well fitted inhibition curve with a large enough effect in the signal ratio, with a control signal flat (not every such curve was filed as active); inconclusive means small, poorly fitted or top-dose-only effect, or effect the other way, or a change in a side signal; inactive means flat fitted curve, though single readings scatter; the % refers to the signal ratio. Potencies beside an inconclusive call are fits to weak or partial responses and may not hold up.

Assay: qHTS Assay for Modulators of Lamin A Splicing
Details: HeLa LMNA splicing GFP/RFP minigene ratio, 48 h; ratio change, negative = inhibition: at 46.1 µM (top of the series) unless noted
In short: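 S3 HeLa stable clones carrying a lamin A-EGFP splicing minigene plus DsRed2 were seeded at 600 cells/well in Opti-MEM with 2% FBS, pin-dosed and incubated 48 h at 37°C. Acumen cytometry (488 nm) gave the GFP/RFP total-intensity ratio.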
On the % scale 0 is the no-effect control and ±100 the full control effect; potency means the concentration at half of the fitted maximal effect.

Q: Which ratio change, negative = inhibition does the source give for `Cc1ccc(Cn2c(CN3CCC(C(=O)NCCc4ccccc4)CC3)cc3ccccc32)cc1` here?
A: The ratio change, negative = inhibition was inconclusive: -12.2% [at 46 µM].

Q: With `CCOCC(=O)Nc1cc(Cl)c(OC)cc1OC` as the compound, how does the ratio change, negative = inhibition read?
A: The ratio change, negative = inhibition was inconclusive: 21.1% [at 46 µM].

Q: For `COc1ccc(NC(=O)CNC(=O)c2c(C)nn(C)c2Cl)cc1`, which ratio change, negative = inhibition is on record?
A: Its ratio change, negative = inhibition is inconclusive: 9.8% [at 46 µM].

Q: Which ratio change, negative = inhibition does the source give for `COc1cccc(Nc2ncc3nc(-c4ccc(Cl)cc4)c(=O)n(C[C@H]4CCCO4)c3n2)c1` here?
A: Its ratio change, negative = inhibition is inconclusive: -20.4%.

Q: With `COc1cc(Cl)ccc1NC(=O)COc1ccccc1C(=O)N1CCN(c2ccc(O)cc2)CC1` as the compound, how does the Potency read?
A: Its Potency is inconclusive: 11.2 µM [falling, single point].

Q: For `Cc1cc(C)c2nc(N(Cc3cccnc3)C(=O)c3cccs3)sc2c1`, which ratio change, negative = inhibition is on record?
A: Its ratio change, negative = inhibition is inconclusive: -10.6% [at 46 µM].

Q: With `COC(=O)C/C(C)=N/Nc1ccc(S(=O)(=O)N2CCCC2)cc1[N+](=O)[O-]` as the compound, how does the ratio change, negative = inhibition read?
A: Its ratio change, negative = inhibition is “inactive”.

Q: Which ratio change, negative = inhibition does the source give for `CCn1cc(S(=O)(=O)c2ccccc2)c(=O)c2cc(F)c(N3CCN(c4ccccc4)CC3)cc21` here?
A: Its ratio change, negative = inhibition is inconclusive: -21.7% [at 46 µM].

Q: With `C#C[C@]1(OC(C)=O)CC[C@H]2[C@@H]3CCC4=C[C@@H](OC(C)=O)CC[C@@H]4[C@H]3CC[C@@]21C` as the compound, how does the ratio change, negative = inhibition read?
A: Its ratio change, negative = inhibition is inconclusive: -4.33%.

Q: Which ratio change, negative = inhibition does the source give for `CSc1ccc(/C=c2\s/c(=C\C(=O)C(C)(C)C)n(CC(=O)NCCC3=CCCCC3)c2=O)cc1` here?
A: Its ratio change, negative = inhibition is “inactive”.

Q: For `COc1cc(NC(=O)c2c(C)oc3c2C2=NCCN2C=N3)cc(OC)c1OC`, which ratio change, negative = inhibition is on record?
A: The ratio change, negative = inhibition was “inactive”.

Q: With `CC(=O)Nc1ccc2nc(SCCOc3cc(C)cc(C)c3)sc2c1` as the compound, how does the ratio change, negative = inhibition read?
A: Its ratio change, negative = inhibition is inconclusive: 2.17% [at 46 µM].

Q: With `COc1ccc(OCC(=O)NCc2ccc3c(c2)CCN3C(=O)c2ccc(F)cc2)cc1` as the compound, how does the ratio change, negative = inhibition read?
A: The ratio change, negative = inhibition was inconclusive: -2.08% [at 46 µM].

Q: Which ratio change, negative = inhibition does the source give for `CCN(CC)C(=O)C1CCCN(c2ccc([N+](=O)[O-])cc2/C=N/NC(=O)c2ccccc2)C1` (stereo unspecified) here?
A: Its ratio change, negative = inhibition is “inactive”.

Q: With `Cc1cc(C)c(S(=O)(=O)Nc2ccc(-c3ccc(N4CCCCCC4)nn3)cc2)c(C)c1` as the compound, how does the ratio change, negative = inhibition read?
A: Its ratio change, negative = inhibition is inconclusive: -21.7% [at 46 µM].

Q: With `Cc1cc(=O)c2n(Cc3ccc(Cl)cc3)nc[n+]2[nH]1` as the compound, how does the ratio change, negative = inhibition read?
A: Its ratio change, negative = inhibition is “inactive”.

Q: Which ratio change, negative = inhibition does the source give for `NC(=O)c1c(NC(NC(=O)c2ccco2)C(=O)c2ccc(Cl)cc2)sc2c1CCCC2` (stereo unspecified) here?
A: Its ratio change, negative = inhibition is “inactive”.

Q: Which Potency does the source give for `COc1cc(C(=O)Nc2ccc(S(=O)(=O)NC(C)C)cc2)cc(OC)c1OC` here?
A: The Potency was inconclusive: 35.5 µM [falling, single point].

Q: For `Cc1cc(NC(=O)CSc2nnnn2-c2ccccc2)no1`, which ratio change, negative = inhibition is on record?
A: Its ratio change, negative = inhibition is inconclusive: 3.23% [at 46 µM].

Q: For `COC(=O)c1ccc(OCC2c3cc(OC)c(OC)cc3CCN2C(=O)Cc2ccccc2)cc1` (stereo unspecified), which ratio change, negative = inhibition is on record?
A: Its ratio change, negative = inhibition is inconclusive: -15.6% [at 46 µM].

Q: With `CC(NC(=S)Nc1ccc(Cl)cc1Cl)C(c1cccs1)N1CCCC1` (stereo unspecified) as the compound, how does the ratio change, negative = inhibition read?
A: The ratio change, negative = inhibition was inconclusive: -10.6%.

Q: Which ratio change, negative = inhibition does the source give for `Cc1ccc(CCNC(=O)CN(C)S(=O)(=O)c2cnc[nH]2)cc1` here?
A: The ratio change, negative = inhibition was “inactive”.

Q: Which ratio change, negative = inhibition does the source give for `N#Cc1c(NC(=O)COC(=O)c2ccc(F)cc2)sc2c1CCC2` here?
A: Its ratio change, negative = inhibition is “inactive”.

Q: With `CCOC(=O)c1cc(-c2ccccc2)n(-c2cccc(C(=O)Nc3cc(OC)cc(OC)c3)c2)c1C` as the compound, how does the ratio change, negative = inhibition read?
A: Its ratio change, negative = inhibition is inconclusive: -12% [at 46 µM].

Q: With `CCn1ncc(C(=O)Nc2ccc(S(=O)(=O)N3CCCC3)cc2)c1C` as the compound, how does the ratio change, negative = inhibition read?
A: The ratio change, negative = inhibition was inconclusive: 0.406%.

Q: Which ratio change, negative = inhibition does the source give for `Clc1ss/c(=N\c2ccccn2)c1Cl` here?
A: Its ratio change, negative = inhibition is “inactive”.

Q: Which ratio change, negative = inhibition does the source give for `COc1ccc(NC(=O)c2cc(CN3CCCC3)on2)cc1Cl` here?
A: Its ratio change, negative = inhibition is “inactive”.

Q: Which Potency does the source give for `CC1C/C(=C/c2cccn2C)C(=O)/C(=C/c2cccn2C)C1` (stereo unspecified) here?
A: The Potency was inconclusive: 35.5 µM [rising, single point].

Q: With `CC(=O)NCCn1c(SCC(=O)Nc2ccc(C)cc2)nc2ccccc2c1=O` as the compound, how does the ratio change, negative = inhibition read?
A: The ratio change, negative = inhibition was inconclusive: 11.9% [at 46 µM].

Q: Which ratio change, negative = inhibition does the source give for `Cc1ccccc1CN1C(=O)c2ccccc2Sc2ccc(C(=O)NC3CCCC3)cc21` here?
A: Its ratio change, negative = inhibition is inconclusive: -18% [at 46 µM].

Q: Which Potency does the source give for `Cc1ccc(Cl)cc1-n1ncc2c(N3CCCCCC3)ncnc21` here?
A: Its Potency is inconclusive: 12.6 µM [inhibitor, partial curve, poor fit].

Q: Which ratio change, negative = inhibition does the source give for `CC1=C(C(=O)Nc2ccc(C)cc2Cl)C2(CCCCCC2)OC1=O` here?
A: Its ratio change, negative = inhibition is inconclusive: 10.6% [at 46 µM].

Q: For `Cc1ccc(C)c2sc(N3CCN(C(=O)C(C)(C)C)CC3)nc12`, which ratio change, negative = inhibition is on record?
A: Its ratio change, negative = inhibition is inconclusive: -11.8% [at 46 µM].

Q: With `COc1ccc(-c2noc(Cc3cccs3)n2)cc1` as the compound, how does the ratio change, negative = inhibition read?
A: The ratio change, negative = inhibition was inconclusive: 19.7%.

Q: With `COc1cc(C(=O)Nc2ccc(C(C)=O)cc2)c(Br)c(OC)c1OC` as the compound, how does the ratio change, negative = inhibition read?
A: Its ratio change, negative = inhibition is inconclusive: 6.06%.

Q: With `Cc1ccc2[nH]c3c(c2c1)CN(C(=O)CN1CC(C)OC(C)C1)CC3` (stereo unspecified) as the compound, how does the ratio change, negative = inhibition read?
A: The ratio change, negative = inhibition was “inactive”.

Q: With `COc1ccc(S(=O)(=O)N2CCC(c3cc(-c4cccc5ccccc45)n[nH]3)CC2)cc1` as the compound, how does the ratio change, negative = inhibition read?
A: The ratio change, negative = inhibition was “inactive”.

Q: Which ratio change, negative = inhibition does the source give for `CCCC1CCc2c(sc(NC(=O)OCC)c2C#N)C1` (stereo unspecified) here?
A: The ratio change, negative = inhibition was inconclusive: -18.3%.

Q: With `Cc1ccc(NC(=O)c2c(NC(=O)CCC(=O)O)sc3c2CCCCC3)cc1` as the compound, how does the ratio change, negative = inhibition read?
A: Its ratio change, negative = inhibition is inconclusive: -21.7% [at 46 µM].

Q: Which ratio change, negative = inhibition does the source give for `Cc1c(Cl)cccc1NC(=S)NCc1ccc2c(c1)OCO2` here?
A: Its ratio change, negative = inhibition is inconclusive: 2.99%.

Q: For `C[C@@]12CCC3c4ccc(OS(=O)(=O)O)cc4CCC3C1CCC2O` (stereo partly specified), which ratio change, negative = inhibition is on record?
A: Its ratio change, negative = inhibition is “inactive”.

Q: Which ratio change, negative = inhibition does the source give for `Nc1c(C(=O)N/N=C/c2cccnc2)cnn1-c1ccccc1` here?
A: The ratio change, negative = inhibition was inconclusive: 14.3%.

Q: Which ratio change, negative = inhibition does the source give for `CCN1CCc2c(C#N)c(N3CCCCC3)nc(NCc3ccccc3)c2C1` here?
A: Its ratio change, negative = inhibition is inconclusive: -1.49%.

Q: With `COc1cc(/C=N/n2cnn(Cc3ccccc3Cl)c2=S)cc(OC)c1OC` as the compound, how does the ratio change, negative = inhibition read?
A: The ratio change, negative = inhibition was inconclusive: -8.2% [at 46 µM].

Q: With `Oc1ccc(N2CCN(C(=S)NCCc3ccccc3)CC2)cc1` as the compound, how does the ratio change, negative = inhibition read?
A: Its ratio change, negative = inhibition is inconclusive: -8.07%.

Q: With `Cn1c(N2CCN(C(=O)NCc3ccccc3)CC2)nc2ccccc21` as the compound, how does the ratio change, negative = inhibition read?
A: The ratio change, negative = inhibition was “inactive”.

Q: Which ratio change, negative = inhibition does the source give for `CCn1nc(C)c2c(-c3ccccc3)cc(=O)n(C(C)C(=O)Nc3ccc(OC)c(OC)c3)c21` (stereo unspecified) here?
A: Its ratio change, negative = inhibition is inconclusive: 36.6% [at 46 µM].

Q: For `Cc1ccc(CNC(=O)c2cn(C3CCCCC3)c(=O)c3c2c2ccccc2n3C)o1`, which ratio change, negative = inhibition is on record?
A: Its ratio change, negative = inhibition is inconclusive: -3.97%.

Q: For `O=C(CNC1CCCCCC1)Nc1ccccc1N1CCOCC1`, which ratio change, negative = inhibition is on record?
A: Its ratio change, negative = inhibition is inconclusive: -2.52% [at 46 µM].

Q: Which ratio change, negative = inhibition does the source give for `CN1CCN(c2ncc3ncc(=O)n(CCC#N)c3n2)CC1` here?
A: The ratio change, negative = inhibition was “inactive”.

Q: With `CC(=O)NCCNC(=O)c1ccc(-n2c(C)ccc2C)cc1` as the compound, how does the ratio change, negative = inhibition read?
A: Its ratio change, negative = inhibition is inconclusive: 36% [at 46 µM].
